Data published in patent US20150224170A1 (priority 2010, published 2015).
“Also recorded” adds a separate entry of the source. For at least one compound, name, drawing or mass did not settle the structure.

Tests used:
[1] = test system: Sindbis virus (SINV, TE strain); type: cell-based
[2] = test system: NFAT3; type: cell-based, rat; conditions: 10 uM
[3] = test system: SINV-infected differentiated CSM14.1 cells; type: cell-based, rat; conditions: 10 uM

For `C=CC[C@@H]1/C=C(\C)C[C@H](C)C[C@H](OC)[C@H]2O[C@@](O)(C(=O)C(=O)N3CCCC[C@H]3C(=O)O[C@H](/C(C)=C/[C@@H]3CC[C@@H](O)[C@H](OC)C3)[C@H](C)[C@@H](O)CC1=O)[C@H](C)C[C@@H]2OC` [FK506], the “viral titers / viral replication versus untreated SINV infection (in words)” value [1] was “lower titers than untreated SINV infection at all time points; also recorded: only slightly reduced”, the “cytoplasmic NFAT3 (Western blot)” value [2] was “remained constant” and the “effect on NFAT3 activation” value [2] was “weaker suppressive effect”. For the same molecule, the “nuclear NFAT3 (Western blot)” value [2] was “showed the same pattern” and the “viability / survival of infected cells” value [3] was “did not detectably affect cell survival; also recorded: had less of an effect”.
